# The exact form of at least one protein or probe is not confirmed.
# Assays:
# [1] = molecular target: Tus-GFP (His6-Tus-LGSGGH-GFPuv) (Escherichia coli) (UniProt P16525); assay: binding assay; conditions: isothermal aggregation (kagg) at 50 C, 250 mM KCl, purified recombinant protein, variant of TerB (GC-extended)
# [2] = molecular target: Tus-GFP (His6-Tus-LGSGGH-GFPuv) (Escherichia coli) (UniProt P16525); assay: activity assay; conditions: GFP thermal melt, 139.4 mM KCl; no DNA 45.2 C; purified recombinant protein
# [3] = molecular target: Tus (Escherichia coli) (UniProt P16525); assay: SPR; conditions: CITED Mulcair et al. 2006; 250 mM KCl; measured on sequence without GC extension; purified recombinant protein
# [4] = molecular target: Tus-GFP (His6-Tus-LGSGGH-GFPuv) (Escherichia coli) (UniProt P16525); assay: EMSA; conditions: complex Tagg 58.7 C, +14.4 C shift; low salt; also confirmed by S method; purified recombinant protein
Sequence,activity on this sequence [2],also measured
CTTTAGTTACAACATACTTATCACCCCGCCCCC / AATCAATGTTGTATGAATAGTGGGGCGGGGG [Ter-AG],,binding result ([1]; kagg increases with KD): binds
AATAAGTATGTTGTAACTAAAGTGGGGGCGGGG / TTATTCATACAACATTGATTTCACCCCCGCCCC [Ter B],66.3 C (Tagg),
AATTAGTATGTTGTAACTAAAGTGGGGGCGGGG / TTAATCATACAACATTGATTTCACCCCCGCCCC [Ter A],66 C (Tagg),
GTCAAGGATGTTGTAACTAACCAGGGGGCGGGG / CAGTTCCTACAACATTGATTGGTCCCCCGCCCC [Ter G],64.9 C (Tagg),
CTTTAGTTACAACATACTTATCACCCCGCCCCC / ATCAATGTTGTATGAATAGTGGGGCGGGGG [Ter-AAG],,binding result ([1]; kagg increases with KD): binds
CCTTCGTATGTTGTAACGACGATGGGGGCGGGG / GGAAGCATACAACATTGCTGCTACCCCCGCCCC [Ter F],58.6 C (Tagg),
CCCCCGCCCCCAATACTTTAGTTACAACATACTTAT / GGGGGCGGGGGTTATGAAATCAATGTTGTAT [TT-lock],,binding result ([1]; ln kagg ratio correlates with ln KD): binds
ATATAGGATGTTGTAACTAATATGGGGGCGGGG / TATATCCTACAACATTGATTATACCCCCGCCCC [Ter C],66.2 C (Tagg),
CTTTAGTTACAACATACTTATCCCCGCCCCC / GAAATCAATGTTGTATGAATAGGGGCGGGGG [TerB (GC-extended)],,Kd [3]: 1.4 nM; binding result [4]: binds
TTAAAGTATGTTGTAACTAAGCAGGGGGCGGGG / AATTTCATACAACATTGATTCGTCCCCCGCCCC [Ter E],65.1 C (Tagg),
CGATCGTATGTTGTAACTATCTCGGGGGCGGGG / GCTAGCATACAACATTGATAGAGCCCCCGCCCC [Ter H],63.4 C (Tagg),
CATTAGTATGTTGTAACTAAATGGGGGGCGGGG / GTAATCATACAACATTGATTTACCCCCCGCCCC [Ter D],66.2 C (Tagg),
ACGCAGTAAGTTGTAACTAATGCGGGGGCGGGG / TGCGTCATTCAACATTGATTACGCCCCCGCCCC [Ter J],61.8 C (Tagg),
AACATGGAAGTTGTAACTAACCGGGGGGCGGGG / TTGTACCTTCAACATTGATTGGCCCCCCGCCCC [Ter I],63.2 C (Tagg),
